The source of these data is paper PMC3291658.

The target in assay [1] is NF-κB p50 (mouse (endogenous in J774)) (UniProt P25799). Put plainly: native gel or EMSA; supershift: 5 µg nuclear extracts from J774 cells mock-treated or infected for 24 h by WT C. neoformans (KN99α), preincubated with preimmune serum or sera against each NF-κB family member alone or in combination; complexes bound to a κB site oligonucleotide. For orientation: A gel shift assay detects complexes by their altered migration in electrophoresis.

The target in assay [2] is T1, NF-κB p50 (mouse (endogenous in J774)), P25799.
T1 chain: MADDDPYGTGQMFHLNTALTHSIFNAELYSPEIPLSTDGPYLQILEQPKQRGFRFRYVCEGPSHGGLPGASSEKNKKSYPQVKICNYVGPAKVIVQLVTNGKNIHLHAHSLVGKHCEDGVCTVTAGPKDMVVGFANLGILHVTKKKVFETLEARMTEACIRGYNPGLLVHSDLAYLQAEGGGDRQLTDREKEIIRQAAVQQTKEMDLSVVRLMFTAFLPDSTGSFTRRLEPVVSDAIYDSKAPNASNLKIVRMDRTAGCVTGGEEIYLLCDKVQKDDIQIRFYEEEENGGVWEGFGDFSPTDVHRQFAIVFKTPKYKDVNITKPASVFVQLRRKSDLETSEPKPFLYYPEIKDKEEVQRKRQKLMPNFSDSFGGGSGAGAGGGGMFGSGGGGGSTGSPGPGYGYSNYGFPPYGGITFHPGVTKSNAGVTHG
Described as above. To be noted: remark: other sources report otherwise.

These are yes or no findings as the source states them, for the method shown. Some binding calls cover weakened binding; strength is not graded here.

Consider NF-κB p50 (from UniProt P25799 1-431), for which, in assay [1], the binding result is “binds”.

B1: NF-κB p65/RelA, Q04207 1-549 (protein)
chain: MDDLFPLIFPSEPAQASGPYVEIIEQPKQRGMRFRYKCEGRSAGSIPGERSTDTTKTHPTIKINGYTGPGTVRISLVTKDPPHRPHPHELVGKDCRDGYYEADLCPDRSIHSFQNLGIQCVKKRDLEQAISQRIQTNNNPFHVPIEEQRGDYDLNAVRLCFQVTVRDPAGRPLLLTPVLSHPIFDNRAPNTAELKICRVNRNSGSCLGGDEIFLLCDKVQKEDIEVYFTGPGWEARGSFSQADVHRQVAIVFRTPPYADPSLQAPVRVSMQLRRPSDRELSEPMEFQYLPDTDDRHRIEEKRKRTYETFKSIMKKSPFNGPTEPRPPTRRIAVPTRNSTSVPKPAPQPYTFPASLSTINFDEFSPMLLPSGQISNQALALAPSSAPVLAQTMVPSSAMVPLAQPPAPAPVLTPGPPQSLSAPVPKSTQAGEGTLSEALLHLQFDADEDLGALLGNSTDPGVFTDLASVDNSEFQQLLNQGVSMSHSTAEPMLMEYPEAITRLVTGSQRPPDPAPTPLGTSGLPNGLSGDEDFSSIADMDFSALLSQISS
On to B1, for which the binding entry in assay [2] was “binds”.
